Each structure is given as a SMILES string. The list shows only some results of the screen, not a fair sample: it gathers tests that were run many times, whatever their T/C, doses with no T/C, and many T/C values between a quarter and a half above the control. Further doses and runs are listed elsewhere. T/C gives the treated animals as a percentage of the vehicle group. Schedules are NCI's codes, read here as Q, the interval in days (D) or hours (H), X, the number of doses. Some T/C values are followed by the survivors on the day toxicity was checked, most often the fifth; without a count, all were alive then. Some doses have a count of surviving animals in place of a T/C: the source holds a T/C of zero for them, seemingly a mark for toxic or unscored doses. Survivors were counted at the toxicity check, usually on the fifth day, unless a day is given; later deaths do not show. Some entries hold several experiments; the values are given in rising order.

Results on 17 compounds are retold here after PubChem BioAssay AID220 (DTP/NCI, 2004).

The subject of the assay is CD8F1 mice, subcutaneous mammary adenocarcinoma, T/C%. Put plainly: NCI In Vivo Anticancer Drug Screen. Data for tumor model Mammary Adenocarcinoma CD8F1 (subcutaneous) in CD8F1. The settings on record: higher T/C = larger tumour. A digest of the protocol: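 Mice carrying transplanted tumors received test compound, and survival or tumor size was recorded. Each value is the treated-group measurement divided by the corresponding measurement in vehicle-dosed controls.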

Setting [1] is: T/C endpoint: median tumor weight (est.), dose: 400.0 mg/kg/injection, schedule: Q07DX005 (ip), vehicle: saline with Tween-80.

As for `C=C(C)C1C2CC3(C)C4(CO4)C4OC4C3(O)C1C(=O)O2` (stereo not given), the survivor count is given as 6 of 10 on day 30 (T/C endpoint: median tumor weight change, dose: 2.5 mg/kg/injection, schedule: Q01DX001 (ip), vehicle: Klucel (hydroxypropylcellulose) (HPC)); 1 of 10 on day 30 (T/C endpoint: median tumor weight change, dose: 5.0 mg/kg/injection, schedule: Q01DX001 (ip), vehicle: Klucel (hydroxypropylcellulose) (HPC)); 0 of 10 on day 30 (T/C endpoint: median tumor weight change, dose: 10.0 mg/kg/injection, schedule: Q01DX001 (ip), vehicle: Klucel (hydroxypropylcellulose) (HPC)); 0 of 10 on day 30 (T/C endpoint: median tumor weight change, dose: 20.0 mg/kg/injection, schedule: Q01DX001 (ip), vehicle: Klucel (hydroxypropylcellulose) (HPC)).

`C=C(C)[C@H]1CN[C@H](C(=O)O)[C@H]1CC(=O)O`: the survivor count (T/C endpoint: median tumor weight change, dose: 50.0 mg/kg/injection, schedule: Q01DX001 (ip), vehicle: saline) was 0 of 10 on day 38.

For `CS(C)=O`, the T/C is, setting by setting: (T/C endpoint: median tumor weight (est.), dose: 1.5 grams/kg/injection, schedule: Q07DX005 (ip), vehicle: saline, evaluated on day 32) 145 % of control; (T/C endpoint: median tumor weight (est.), dose: 3.0 grams/kg/injection, schedule: Q07DX005 (ip), vehicle: saline, evaluated on day 30) 133 % of control [7 of 10 alive].

For the compound `Cn1cnc([N+](=O)[O-])c1S(=O)(=O)NCN1CCOCC1`, the T/C runs as follows: (T/C endpoint: median tumor weight (est.), dose: 50.0 mg/kg/injection, schedule: Q07DX005 (ip), vehicle: Klucel (hydroxypropylcellulose) (HPC), evaluated on day 30) 146 % of control [9 of 10 alive]; (T/C endpoint: median tumor weight (est.), dose: 200.0 mg/kg/injection, schedule: Q07DX005 (ip), vehicle: Klucel (hydroxypropylcellulose) (HPC), evaluated on day 30) 126 % of control [9 of 10 alive]. For the same compound, the survivor count reads like this: (T/C endpoint: median tumor weight (est.), dose: 200.0 mg/kg/injection, schedule: Q07DX005 (ip), vehicle: Klucel (hydroxypropylcellulose) (HPC)) 6 of 10 on day 30; (T/C endpoint: median tumor weight (est.), dose: 400.0 mg/kg/injection, schedule: Q07DX005 (ip), vehicle: Klucel (hydroxypropylcellulose) (HPC)) 0 of 10 on day 30; (T/C endpoint: median tumor weight (est.), dose: 800.0 mg/kg/injection, schedule: Q07DX005 (ip), vehicle: Klucel (hydroxypropylcellulose) (HPC)) 0 of 10 on day 30.

`NC(=O)c1ncn2c(=O)n(CCCl)nnc12`: the survivor count (T/C endpoint: median tumor weight change, dose: 100.0 mg/kg/injection, schedule: Q01DX001 (ip), vehicle: suspension in saline) is recorded as 6 of 10 on day 28; the survivor count (T/C endpoint: median tumor weight change, dose: 200.0 mg/kg/injection, schedule: Q01DX001 (ip), vehicle: suspension in saline) was 4 of 10 on day 28; the survivor count (T/C endpoint: median tumor weight change, dose: 400.0 mg/kg/injection, schedule: Q01DX001 (ip), vehicle: suspension in saline) is 0 of 10 on day 28.

For `CC[C@H](CC[C@@H](C)C1CC[C@H]2[C@@H]3CC=C4C[C@@H](OP(=O)(N5CC5)N5CC5)CC[C@]4(C)[C@H]3CC[C@]12C)C(C)C` (stereo not given in full), the T/C (T/C endpoint: median tumor weight (est.), dose: 25.0 mg/kg/injection, schedule: Q07DX005 (ip), vehicle: saline with Tween-80, evaluated on day 30) was 138 % of control [9 of 10 alive on day 30].

`Cc1[nH]c(=O)[nH]c(=O)c1N(CCF)CCCl`: the survivor count (T/C endpoint: median tumor weight (est.), dose: 40.0 mg/kg/injection, schedule: Q07DX005 (ip), vehicle: Klucel (hydroxypropylcellulose) (HPC)) is listed as 5 of 9 on day 30; the survivor count (T/C endpoint: median tumor weight (est.), dose: 80.0 mg/kg/injection, schedule: Q07DX005 (ip), vehicle: Klucel (hydroxypropylcellulose) (HPC)) is 0 of 9 on day 30; the survivor count (T/C endpoint: median tumor weight change, dose: 100.0 mg/kg/injection, schedule: Q01DX001 (ip), vehicle: Klucel (hydroxypropylcellulose) (HPC)) is 1 of 10 on day 28 and 5 of 10 on day 30; the survivor count (T/C endpoint: median tumor weight change, dose: 200.0 mg/kg/injection, schedule: Q01DX001 (ip), vehicle: Klucel (hydroxypropylcellulose) (HPC)) is given as 0 of 10 on day 28, 0 of 10 on day 30, 1 of 10 on day 28; the survivor count (T/C endpoint: median tumor weight change, dose: 400.0 mg/kg/injection, schedule: Q01DX001 (ip), vehicle: Klucel (hydroxypropylcellulose) (HPC)) is given as 0 of 10 on day 30.

Regarding `COc1cc([C@@H]2c3cc4c(cc3[C@@H](OC3OC5CO[C@@H](c6cccs6)OC5C(O)C3O)[C@H]3COC(=O)[C@H]23)OCO4)cc(OC)c1O` (stereo not given in full), the T/C (T/C endpoint: median tumor weight (est.), dose: 4.0 mg/kg/injection, schedule: Q07DX005 (ip), vehicle: saline, evaluated on day 30) was 133 % of control. The survivor count (T/C endpoint: median tumor weight (est.), dose: 16.0 mg/kg/injection, schedule: Q07DX005 (ip), vehicle: saline) is reported as 1 of 10.

`CC(C)=CCNc1ncnc2c1ncn2C1OC(CO)C(O)C1O` (stereo not given): the survivor count under setting [1] is 1 of 10 on day 30.

Regarding `O=C(NO)c1ccc(O)c(O)c1`, the survivor count by setting is: (T/C endpoint: median tumor weight change, dose: 1200.0 mg/kg/injection, schedule: Q01DX001 (ip), vehicle: water) 0 of 10 on day 34; (T/C endpoint: median tumor weight change, dose: 2400.0 mg/kg/injection, schedule: Q01DX001 (ip), vehicle: water) 0 of 10 on day 34.

Regarding `CCOC(=O)C1=C(C#N)C2(CCC(OCc3ccccc3)CC2)C(=O)O1` (stereo not given), the survivor count (T/C endpoint: median tumor weight change, dose: 2000.0 mg/kg/injection, schedule: Q01DX001 (ip), vehicle: suspension in saline) is 0 of 10 on day 31.

As to `Cc1c2cc[n+](C)cc2c(C)c2c1[nH]c1ccc(O)cc12`, the survivor count (T/C endpoint: median tumor weight change, dose: 5.0 mg/kg/injection, schedule: Q01DX001 (ip), vehicle: saline) was 3 of 10 on day 27 and the survivor count (T/C endpoint: median tumor weight change, dose: 10.0 mg/kg/injection, schedule: Q01DX001 (ip), vehicle: saline) is given as 0 of 10 on day 27.

As to `COC1=C(OC)C(=O)C(Sc2ccc3ccccc3c2)=CC1=O`, the T/C (T/C endpoint: median tumor weight (est.), dose: 100.0 mg/kg/injection, schedule: Q07DX005 (ip), vehicle: saline with Tween-80, evaluated on day 30) is 130 % of control. In addition, the survivor count under setting [1] was 4 of 10 on day 30.

Regarding `NC(CCC(=O)NC(CS)C(=O)NCC(=O)O)C(=O)O` (stereo not given), the T/C (T/C endpoint: median tumor weight change, dose: 500.0 mg/kg/injection, schedule: Q01DX001 (ip), vehicle: saline, evaluated on day 26) is 130 % of control.

In the case of `COc1c(C=O)c2c(c(OC)c1OC)-c1ccc(OC)c(=O)cc1[C@@H](NC(C)=O)CC2`, the T/C (T/C endpoint: median tumor weight change, dose: 7.81 mg/kg/injection, schedule: Q01DX001 (ip), vehicle: Klucel (hydroxypropylcellulose) (HPC), evaluated on day 27) was 125 % of control. For the same compound, the survivor count (T/C endpoint: median tumor weight change, dose: 125.0 mg/kg/injection, schedule: Q01DX001 (ip), vehicle: Klucel (hydroxypropylcellulose) (HPC)) was 0 of 10 on day 26 and 5 of 10 on day 27.

Consider `CC(C)NC(=O)OCc1c(COC(=O)NC(C)C)c(-c2ccc(Cl)c(Cl)c2)n2c1CCC2`, for which the survivor count is reported as 2 of 10 on day 30 (T/C endpoint: median tumor weight (est.), dose: 200.0 mg/kg/injection, schedule: Q07DX005 (ip), vehicle: distilled water + Tween-80) and 0 of 10 on day 30 (T/C endpoint: median tumor weight (est.), dose: 400.0 mg/kg/injection, schedule: Q07DX005 (ip), vehicle: distilled water + Tween-80).

Take `CCC1=C[C@H]2CN(CCc3c([nH]c4ccccc34)[C@@](C(=O)OC)(c3cc4c(cc3OC)N(C)[C@H]3[C@@](O)(C(=O)NC)[C@H](OC(C)=O)[C@]5(CC)C=CCN6CC[C@]43[C@@H]65)C2)C1`: the T/C (T/C endpoint: median tumor weight (est.), dose: 0.25 mg/kg/injection, schedule: Q07DX005 (ip), vehicle: water, evaluated on day 32) was 139 % of control. Also, the survivor count by setting is: (T/C endpoint: median tumor weight (est.), dose: 2.0 mg/kg/injection, schedule: Q07DX005 (ip), vehicle: saline) 4 of 10 on day 30; (T/C endpoint: median tumor weight (est.), dose: 4.0 mg/kg/injection, schedule: Q07DX005 (ip), vehicle: saline) 0 of 10 on day 30; (T/C endpoint: median tumor weight (est.), dose: 4.0 mg/kg/injection, schedule: Q07DX005 (ip), vehicle: water) 0 of 10 on day 32.
